Among the data in paper doi:10.1101/828426 are binding values, retold here.

These are yes or no findings as the source states them, for the method shown. Binding seen in cells or lysates may run through a third protein. A result given as binding can be weak or reduced; the word gives no strength.

The target of this experiment is T1, T7-Fbxo45 (murine) (UniProt Q8K3B1).
T1 sequence: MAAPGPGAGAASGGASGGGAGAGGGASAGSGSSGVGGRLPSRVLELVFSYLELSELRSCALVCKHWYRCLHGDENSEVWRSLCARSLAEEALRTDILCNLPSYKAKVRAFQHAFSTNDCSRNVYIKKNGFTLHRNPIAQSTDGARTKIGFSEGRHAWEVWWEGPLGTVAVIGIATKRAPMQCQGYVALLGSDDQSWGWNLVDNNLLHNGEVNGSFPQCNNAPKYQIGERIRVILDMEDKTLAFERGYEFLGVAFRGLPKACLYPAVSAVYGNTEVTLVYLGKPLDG
Description: co-IP.

On to NCad EC1-2 (mouse) (domain or fragment), for which the binding result is listed as “binds”.

On to ECad-HA (murine), for which the binding entry is “no binding”.
